The target of the assay is T1, Suppressor of fused (Sufu), endogenous (mouse (endogenous in NIH3T3 and MEFs)) (UniProt Q9Z0P7).
T1 sequence: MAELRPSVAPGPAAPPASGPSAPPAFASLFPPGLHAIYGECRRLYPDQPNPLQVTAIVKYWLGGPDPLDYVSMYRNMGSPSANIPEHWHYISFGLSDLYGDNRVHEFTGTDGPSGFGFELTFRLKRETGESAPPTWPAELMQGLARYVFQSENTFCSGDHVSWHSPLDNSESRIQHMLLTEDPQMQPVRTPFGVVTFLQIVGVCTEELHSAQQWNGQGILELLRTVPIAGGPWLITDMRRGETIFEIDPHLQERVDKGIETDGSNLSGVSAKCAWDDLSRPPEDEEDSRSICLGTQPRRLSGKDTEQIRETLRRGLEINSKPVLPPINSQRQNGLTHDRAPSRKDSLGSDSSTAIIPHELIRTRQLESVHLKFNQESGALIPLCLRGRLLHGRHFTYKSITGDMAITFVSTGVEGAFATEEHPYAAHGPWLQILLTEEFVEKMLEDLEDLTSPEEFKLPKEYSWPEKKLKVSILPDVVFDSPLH
The assay is described as follows: affinity purification with mass spectrometry; endogenous Sufu immunoprecipitated with anti-Sufu antibodies from NIH3T3 cells treated with Shh- or control-conditioned medium for 24 h; eluate analysed by gel-free LC-MS/MS.

Amino acid sequences for entries named in this document (tags omitted).
UniProt P53996: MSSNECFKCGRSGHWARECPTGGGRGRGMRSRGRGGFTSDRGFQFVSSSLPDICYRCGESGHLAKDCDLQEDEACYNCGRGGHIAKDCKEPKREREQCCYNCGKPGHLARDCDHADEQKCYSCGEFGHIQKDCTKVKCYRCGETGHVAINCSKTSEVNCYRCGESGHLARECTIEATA

Results are given in words; binding and its absence hold for the method and conditions named. Binding seen in cells or lysates may run through a third protein. A yes stands for co-enrichment or nearness to the bait. Other partners may have been found. Tags and fused reporters may be left off the sequences shown.

Turning to “zinc-finger protein CNBP, endogenous (from UniProt P53996 1-178)”, the binding entry is on record as “binds”.

B1: Protein phosphatase 4 regulatory subunit 2 (Ppp4r2), endogenous (protein, UniProt Q0VGB7 1-417)
chain: MDVERLQEALKDFEKRGKKEVCPVLDQFLCHVAKTGETMIQWSQFKGYFIFKLEKVMDDFRTSAPEPRGPPNPNVEYIPFDEMKERILKIVTGFNGIPFTIQRLCELLTDPRRNYTGTDKFLRGVEKNVMVVSCVCPSSEKNNSNSLNRMNGVMFPGNSPNYTDRSNINGPGTPRPLNRPKLSLSAPLTTNGLPESTDSKDSELQLSEEKGHSDSSASESEVSLLSPVKNKHPDEDAVESEEHEVKRLKFDKEGDVRETASQTVSGEVSSVRAEETETAAPPPDKDRESRTRQHCTEEEEEEEEEEEEEEEESFMTPREMVPERKNQEKESDDALTVNEETSEESHQMEGSGVSPAQTDSTSERSDSAGASRSGSDCLETQESGGPPSSKTGESVSVPSSMESEEATEVTDDPMEQD
As to B1, the binding entry is “binds”.

The values above are taken from publication PMC7442787.
